Among the data in paper doi:10.1101/2024.10.07.616967 are binding values, retold here.

Protein sequences, listed by entry. Tags and fused reporters are not part of them. Residues count along the entry.
UniProt Q70CQ3: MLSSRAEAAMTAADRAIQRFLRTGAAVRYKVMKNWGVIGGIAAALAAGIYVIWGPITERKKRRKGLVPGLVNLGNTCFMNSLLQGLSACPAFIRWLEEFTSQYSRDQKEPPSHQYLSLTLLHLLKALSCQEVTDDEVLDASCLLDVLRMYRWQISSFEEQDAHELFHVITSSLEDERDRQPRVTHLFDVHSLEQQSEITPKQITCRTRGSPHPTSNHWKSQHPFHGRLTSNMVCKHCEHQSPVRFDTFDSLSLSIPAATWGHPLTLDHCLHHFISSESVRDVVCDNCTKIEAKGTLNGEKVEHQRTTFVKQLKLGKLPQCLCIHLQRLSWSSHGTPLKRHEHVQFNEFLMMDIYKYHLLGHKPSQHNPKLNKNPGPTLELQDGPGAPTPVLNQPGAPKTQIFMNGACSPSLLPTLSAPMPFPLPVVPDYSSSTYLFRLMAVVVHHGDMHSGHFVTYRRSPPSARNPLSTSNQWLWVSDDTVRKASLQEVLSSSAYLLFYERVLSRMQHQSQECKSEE
UniProt O95202, residues 116-739: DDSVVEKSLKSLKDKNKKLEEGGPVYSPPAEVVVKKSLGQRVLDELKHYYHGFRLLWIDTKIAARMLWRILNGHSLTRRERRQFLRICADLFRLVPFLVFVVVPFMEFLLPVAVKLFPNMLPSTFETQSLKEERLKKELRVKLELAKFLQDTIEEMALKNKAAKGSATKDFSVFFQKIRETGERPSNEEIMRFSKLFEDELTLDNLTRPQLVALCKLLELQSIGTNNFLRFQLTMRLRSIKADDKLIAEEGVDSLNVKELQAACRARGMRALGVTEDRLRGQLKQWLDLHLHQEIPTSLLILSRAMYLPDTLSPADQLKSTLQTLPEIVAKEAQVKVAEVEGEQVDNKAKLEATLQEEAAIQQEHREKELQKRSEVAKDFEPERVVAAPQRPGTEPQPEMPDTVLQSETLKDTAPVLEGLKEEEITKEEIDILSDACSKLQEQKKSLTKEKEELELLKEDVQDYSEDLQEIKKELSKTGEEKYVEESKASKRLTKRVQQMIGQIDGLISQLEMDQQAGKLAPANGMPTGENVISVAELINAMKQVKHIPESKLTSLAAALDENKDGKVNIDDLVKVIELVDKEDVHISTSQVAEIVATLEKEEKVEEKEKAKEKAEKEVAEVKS
UniProt Q15388: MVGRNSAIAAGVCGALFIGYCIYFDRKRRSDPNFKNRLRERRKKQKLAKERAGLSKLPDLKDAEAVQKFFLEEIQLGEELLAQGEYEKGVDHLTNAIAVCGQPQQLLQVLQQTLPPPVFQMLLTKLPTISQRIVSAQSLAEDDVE

These are yes or no findings as the source states them, for the method shown. In cells and extracts the contact can be indirect. Some results given as binding are weak or reduced against the parent protein; the word gives no strength.

Test [1] addresses Flag-USP30 (UniProt Q70CQ3). As to the kind of experiment: proximity ligation.
In test [2] the target is LETM1, endogenous in SH-SY5Y cells (human (endogenous in SH-SY5Y)) (UniProt O95202). The test can be described thus: co-IP.
Test [3] addresses Flag-USP30 (UniProt Q70CQ3). The test can be described thus: co-IP.

On to “TOMM20, endogenous in HEK293 cells (from UniProt Q15388 1-145)”, for which, in the test with Flag-USP30 [1], the binding entry is reported as “binds”.
For the substance “TOMM20, endogenous in SH-SY5Y cells (from UniProt Q15388 1-145)”, in test [2], the binding result is given as “binds”.
With “leucine-containing zipper and EF-hand transmembrane protein 1 (LETM1), endogenous in HEK293 cells (from UniProt O95202 116-739)”, the binding entry with Flag-USP30 [3] and with Flag-USP30 [1] was “binds” in each case.
